Consider 23 molecules from PMC10279913.

Sequences of proteins named here, by UniProt entry; tags and fusion partners are left off. A change or cut given only in a name is not applied to a line headed by its entry.
UniProt Q9N536: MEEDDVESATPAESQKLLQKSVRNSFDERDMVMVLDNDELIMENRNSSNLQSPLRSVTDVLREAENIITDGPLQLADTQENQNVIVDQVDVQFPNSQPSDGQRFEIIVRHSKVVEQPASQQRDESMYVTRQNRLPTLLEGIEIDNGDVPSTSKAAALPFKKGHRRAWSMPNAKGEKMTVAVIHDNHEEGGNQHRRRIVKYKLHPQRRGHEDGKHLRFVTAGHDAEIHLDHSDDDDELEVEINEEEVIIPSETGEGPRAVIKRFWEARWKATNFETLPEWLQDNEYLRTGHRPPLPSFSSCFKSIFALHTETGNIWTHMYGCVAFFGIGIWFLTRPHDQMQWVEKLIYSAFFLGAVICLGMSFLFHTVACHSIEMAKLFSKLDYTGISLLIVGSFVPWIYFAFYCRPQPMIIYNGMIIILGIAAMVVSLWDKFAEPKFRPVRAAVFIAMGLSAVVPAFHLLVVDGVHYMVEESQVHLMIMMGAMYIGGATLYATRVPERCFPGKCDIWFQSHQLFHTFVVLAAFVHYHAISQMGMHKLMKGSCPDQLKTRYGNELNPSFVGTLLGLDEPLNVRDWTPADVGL
UniProt P91398: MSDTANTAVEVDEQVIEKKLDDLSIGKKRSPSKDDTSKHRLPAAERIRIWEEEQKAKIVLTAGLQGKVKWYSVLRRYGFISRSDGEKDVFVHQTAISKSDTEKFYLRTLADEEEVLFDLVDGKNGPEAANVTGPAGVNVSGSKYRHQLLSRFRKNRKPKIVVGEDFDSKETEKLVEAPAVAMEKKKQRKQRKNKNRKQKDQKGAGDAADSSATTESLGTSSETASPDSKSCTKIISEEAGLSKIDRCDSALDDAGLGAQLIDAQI
UniProt P48166: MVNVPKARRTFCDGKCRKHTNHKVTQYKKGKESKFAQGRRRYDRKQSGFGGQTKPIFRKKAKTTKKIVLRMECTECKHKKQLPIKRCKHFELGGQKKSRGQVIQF
UniProt Q21243: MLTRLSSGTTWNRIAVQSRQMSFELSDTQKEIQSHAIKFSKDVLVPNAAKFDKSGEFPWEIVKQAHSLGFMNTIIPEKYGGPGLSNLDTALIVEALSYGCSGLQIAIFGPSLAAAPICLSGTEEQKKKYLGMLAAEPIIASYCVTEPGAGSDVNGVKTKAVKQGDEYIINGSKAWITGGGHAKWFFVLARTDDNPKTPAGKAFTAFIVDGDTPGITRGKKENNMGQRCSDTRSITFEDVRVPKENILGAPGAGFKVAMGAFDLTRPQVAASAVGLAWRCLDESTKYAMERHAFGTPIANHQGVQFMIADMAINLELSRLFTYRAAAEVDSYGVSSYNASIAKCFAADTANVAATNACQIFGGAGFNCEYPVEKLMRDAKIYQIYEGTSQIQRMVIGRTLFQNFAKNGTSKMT
UniProt Q5TKB2: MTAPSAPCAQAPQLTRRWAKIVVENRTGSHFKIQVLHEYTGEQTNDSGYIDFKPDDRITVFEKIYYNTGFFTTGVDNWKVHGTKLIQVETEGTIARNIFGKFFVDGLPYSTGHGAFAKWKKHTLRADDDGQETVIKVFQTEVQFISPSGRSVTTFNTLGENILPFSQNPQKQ
UniProt P52011: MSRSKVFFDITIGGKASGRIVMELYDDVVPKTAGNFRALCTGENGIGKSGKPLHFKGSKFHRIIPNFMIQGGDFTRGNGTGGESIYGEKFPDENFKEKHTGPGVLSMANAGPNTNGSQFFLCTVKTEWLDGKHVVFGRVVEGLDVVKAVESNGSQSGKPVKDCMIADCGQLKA
UniProt Q21351: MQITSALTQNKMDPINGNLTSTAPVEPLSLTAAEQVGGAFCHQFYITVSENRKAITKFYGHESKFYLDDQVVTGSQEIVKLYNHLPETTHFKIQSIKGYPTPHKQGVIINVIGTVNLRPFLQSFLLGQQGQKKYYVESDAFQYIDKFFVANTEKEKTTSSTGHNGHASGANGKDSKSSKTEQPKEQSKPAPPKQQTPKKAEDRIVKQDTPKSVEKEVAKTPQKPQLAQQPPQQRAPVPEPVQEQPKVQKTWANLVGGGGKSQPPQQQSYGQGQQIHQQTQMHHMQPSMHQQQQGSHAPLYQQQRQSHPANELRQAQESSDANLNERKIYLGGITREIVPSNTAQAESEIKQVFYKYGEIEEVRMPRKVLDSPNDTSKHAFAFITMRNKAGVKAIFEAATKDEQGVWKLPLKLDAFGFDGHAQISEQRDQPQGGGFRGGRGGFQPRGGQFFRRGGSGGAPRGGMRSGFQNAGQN
UniProt G5EET8: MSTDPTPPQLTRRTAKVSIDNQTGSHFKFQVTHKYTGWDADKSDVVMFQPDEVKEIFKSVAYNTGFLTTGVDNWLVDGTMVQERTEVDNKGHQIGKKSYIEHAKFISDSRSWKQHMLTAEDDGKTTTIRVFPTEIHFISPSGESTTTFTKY
UniProt Q23315: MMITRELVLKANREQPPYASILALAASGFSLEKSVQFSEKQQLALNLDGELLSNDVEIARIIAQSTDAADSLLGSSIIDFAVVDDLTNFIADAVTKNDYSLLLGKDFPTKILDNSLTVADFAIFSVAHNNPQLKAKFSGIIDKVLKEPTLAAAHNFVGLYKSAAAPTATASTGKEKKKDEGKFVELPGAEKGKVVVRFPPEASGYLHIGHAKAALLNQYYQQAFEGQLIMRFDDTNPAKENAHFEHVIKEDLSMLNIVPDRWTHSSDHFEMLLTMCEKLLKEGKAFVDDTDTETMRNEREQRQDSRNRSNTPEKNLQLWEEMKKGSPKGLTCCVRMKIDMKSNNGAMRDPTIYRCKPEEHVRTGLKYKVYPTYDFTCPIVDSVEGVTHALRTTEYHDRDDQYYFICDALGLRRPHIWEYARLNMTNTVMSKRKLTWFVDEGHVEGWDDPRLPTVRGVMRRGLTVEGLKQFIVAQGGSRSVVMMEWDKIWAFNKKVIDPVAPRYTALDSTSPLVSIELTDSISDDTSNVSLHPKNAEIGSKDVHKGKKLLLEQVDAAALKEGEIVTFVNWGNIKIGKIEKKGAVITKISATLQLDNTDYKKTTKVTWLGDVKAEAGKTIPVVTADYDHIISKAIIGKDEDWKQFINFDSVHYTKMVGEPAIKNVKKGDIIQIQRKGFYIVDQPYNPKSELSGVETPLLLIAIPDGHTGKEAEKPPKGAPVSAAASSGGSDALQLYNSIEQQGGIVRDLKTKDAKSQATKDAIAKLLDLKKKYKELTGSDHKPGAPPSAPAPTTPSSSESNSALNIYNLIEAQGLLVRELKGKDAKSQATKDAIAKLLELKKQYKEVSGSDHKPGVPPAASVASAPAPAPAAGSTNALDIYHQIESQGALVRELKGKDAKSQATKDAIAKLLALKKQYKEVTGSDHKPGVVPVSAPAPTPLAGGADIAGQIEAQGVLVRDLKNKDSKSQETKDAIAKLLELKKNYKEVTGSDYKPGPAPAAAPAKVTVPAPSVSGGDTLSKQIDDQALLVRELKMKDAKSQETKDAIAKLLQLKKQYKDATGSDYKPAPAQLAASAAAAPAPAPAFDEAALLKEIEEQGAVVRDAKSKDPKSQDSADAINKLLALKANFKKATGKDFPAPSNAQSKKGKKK
UniProt Q20121: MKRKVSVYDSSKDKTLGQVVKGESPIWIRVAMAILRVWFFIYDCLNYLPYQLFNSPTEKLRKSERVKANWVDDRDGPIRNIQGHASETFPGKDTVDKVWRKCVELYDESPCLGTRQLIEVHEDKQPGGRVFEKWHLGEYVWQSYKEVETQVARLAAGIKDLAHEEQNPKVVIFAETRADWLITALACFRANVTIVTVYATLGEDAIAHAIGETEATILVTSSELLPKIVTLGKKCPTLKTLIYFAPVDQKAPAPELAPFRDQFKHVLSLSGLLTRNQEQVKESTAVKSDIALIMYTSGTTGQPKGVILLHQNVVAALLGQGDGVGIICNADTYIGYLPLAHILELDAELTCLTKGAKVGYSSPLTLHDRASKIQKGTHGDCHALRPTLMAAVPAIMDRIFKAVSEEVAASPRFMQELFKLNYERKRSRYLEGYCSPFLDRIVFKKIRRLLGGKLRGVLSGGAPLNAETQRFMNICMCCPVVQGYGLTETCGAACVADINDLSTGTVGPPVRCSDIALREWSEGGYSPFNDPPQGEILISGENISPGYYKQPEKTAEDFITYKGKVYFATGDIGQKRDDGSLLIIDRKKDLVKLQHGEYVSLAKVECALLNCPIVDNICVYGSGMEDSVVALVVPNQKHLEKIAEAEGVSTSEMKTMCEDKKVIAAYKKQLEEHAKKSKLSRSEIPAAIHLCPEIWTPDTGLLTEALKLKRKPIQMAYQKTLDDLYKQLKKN
UniProt Q22352: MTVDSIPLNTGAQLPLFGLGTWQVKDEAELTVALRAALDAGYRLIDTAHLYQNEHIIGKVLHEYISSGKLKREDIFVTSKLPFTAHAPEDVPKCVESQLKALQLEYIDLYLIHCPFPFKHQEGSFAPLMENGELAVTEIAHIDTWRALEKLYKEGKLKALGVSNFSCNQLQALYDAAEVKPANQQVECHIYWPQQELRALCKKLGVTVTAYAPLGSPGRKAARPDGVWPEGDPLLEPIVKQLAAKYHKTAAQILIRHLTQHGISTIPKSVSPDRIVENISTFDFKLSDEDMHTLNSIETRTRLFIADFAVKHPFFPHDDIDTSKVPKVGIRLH
UniProt Q17832: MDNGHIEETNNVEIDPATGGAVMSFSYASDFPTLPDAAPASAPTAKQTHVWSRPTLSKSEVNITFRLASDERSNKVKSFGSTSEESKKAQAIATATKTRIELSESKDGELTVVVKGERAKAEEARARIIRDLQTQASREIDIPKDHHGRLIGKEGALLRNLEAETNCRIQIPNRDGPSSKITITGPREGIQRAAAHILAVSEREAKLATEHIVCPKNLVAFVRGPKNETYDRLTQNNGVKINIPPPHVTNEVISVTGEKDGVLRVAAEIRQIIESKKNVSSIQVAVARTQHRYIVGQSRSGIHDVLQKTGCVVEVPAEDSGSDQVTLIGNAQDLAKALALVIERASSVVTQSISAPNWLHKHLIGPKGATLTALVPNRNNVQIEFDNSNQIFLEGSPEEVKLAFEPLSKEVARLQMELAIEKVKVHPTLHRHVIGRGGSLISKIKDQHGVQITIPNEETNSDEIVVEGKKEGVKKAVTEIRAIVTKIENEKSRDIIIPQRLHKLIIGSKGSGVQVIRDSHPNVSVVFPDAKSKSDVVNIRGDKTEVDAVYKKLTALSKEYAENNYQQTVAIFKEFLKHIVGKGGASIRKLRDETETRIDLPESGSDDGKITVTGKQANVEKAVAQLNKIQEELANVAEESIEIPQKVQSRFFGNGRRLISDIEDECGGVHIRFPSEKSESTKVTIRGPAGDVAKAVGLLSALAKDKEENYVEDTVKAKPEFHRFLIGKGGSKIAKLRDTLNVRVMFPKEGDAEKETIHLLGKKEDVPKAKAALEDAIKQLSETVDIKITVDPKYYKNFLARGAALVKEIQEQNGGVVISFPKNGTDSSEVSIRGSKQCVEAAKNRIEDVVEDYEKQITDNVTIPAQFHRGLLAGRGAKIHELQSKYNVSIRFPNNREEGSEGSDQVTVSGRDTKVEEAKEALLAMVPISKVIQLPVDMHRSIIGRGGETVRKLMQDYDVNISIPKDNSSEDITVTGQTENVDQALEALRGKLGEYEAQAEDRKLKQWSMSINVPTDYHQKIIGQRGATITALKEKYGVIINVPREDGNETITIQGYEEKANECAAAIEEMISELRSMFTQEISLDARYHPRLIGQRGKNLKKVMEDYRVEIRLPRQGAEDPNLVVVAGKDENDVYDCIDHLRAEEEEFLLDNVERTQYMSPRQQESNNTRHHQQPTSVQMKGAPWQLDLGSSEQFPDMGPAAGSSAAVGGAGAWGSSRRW

The labels stand for the following.
T1: HA::AdipoR2 (human) (UniProt Q86V24)
T1 sequence: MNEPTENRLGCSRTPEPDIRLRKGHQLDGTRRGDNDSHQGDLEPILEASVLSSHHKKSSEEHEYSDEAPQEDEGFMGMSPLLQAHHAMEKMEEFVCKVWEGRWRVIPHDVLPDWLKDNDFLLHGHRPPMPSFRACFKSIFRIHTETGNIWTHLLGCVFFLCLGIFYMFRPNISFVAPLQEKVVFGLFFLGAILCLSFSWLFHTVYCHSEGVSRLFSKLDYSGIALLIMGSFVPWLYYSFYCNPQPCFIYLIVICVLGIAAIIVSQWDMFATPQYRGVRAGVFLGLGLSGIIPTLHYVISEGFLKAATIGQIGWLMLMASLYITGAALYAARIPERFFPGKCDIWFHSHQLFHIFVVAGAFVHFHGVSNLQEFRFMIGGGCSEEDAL

B1: Upregulated during skeletal muscle growth protein 5 (protein, UniProt Q96IX5 1-58)
chain: MAGPESDAQYQFTGIKKYFNSYTLTGRMNCVLATYGSIALIVLYFKLRSKKTPAVKAT
B2: Dolichyl-diphosphooligosaccharide–protein glycosyltransferase (protein, UniProt P39656 43-456)
chain: SGPRTLVLLDNLNVRETHSLFFRSLKDRGFELTFKTADDPSLSLIKYGEFLYDNLIIFSPSVEDFGGNINVETISAFIDGGGSVLVAASSDIGDPLRELGSECGIEFDEEKTAVIDHHNYDISDLGQHTLIVADTENLLKAPTIVGKSSLNPILFRGVGMVADPDNPLVLDILTGSSTSYSFFPDKPITQYPHAVGKNTLLIAGLQARNNARVIFSGSLDFFSDSFFNSAVQKAAPGSQRYSQTGNYELAVALSRWVFKEEGVLRVGPVSHHRVGETAPPNAYTVTDLVEYSIVIQQLSNGKWVPFDGDDIQLEFVRIDPFVRTFLKKKGGKYSVQFKLPDVYGVFQFKVDYNRLGYTHLYSSTQVSVRPLQHTQYERFIPSAYPYYASAFSMMLGLFIFSIVFLHMKEKEKSD
B3: Aspartate–tRNA ligase, cytoplasmic (enzyme, UniProt P14868 1-501)
chain: MPSASASRKSQEKPREIMDAAEDYAKERYGISSMIQSQEKPDRVLVRVRDLTIQKADEVVWVRARVHTSRAKGKQCFLVLRQQQFNVQALVAVGDHASKQMVKFAANINKESIVDVEGVVRKVNQKIGSCTQQDVELHVQKIYVISLAEPRLPLQLDDAVRPEAEGEEEGRATVNQDTRLDNRVIDLRTSTSQAVFRLQSGICHLFRETLINKGFVEIQTPKIISAASEGGANVFTVSYFKNNAYLAQSPQLYKQMCICADFEKVFSIGPVFRAEDSNTHRHLTEFVGLDIEMAFNYHYHEVMEEIADTMVQIFKGLQERFQTEIQTVNKQFPCEPFKFLEPTLRLEYCEALAMLREAGVEMGDEDDLSTPNEKLLGHLVKEKYDTDFYILDKYPLAVRPFYTMPDPRNPKQSNSYDMFMRGEEILSGAQRIHDPQLLTERALHHGIDLEKIKAYIDSFRFGAPPHAGGGIGLERVTMLFLGLHNVRQTSMFPRDPKRLTP
B4: Dolichyl-diphosphooligosaccharide–protein glycosyltransferase subunit 1 (protein, UniProt P04843 24-607)
chain: ASSEAPPLINEDVKRTVDLSSHLAKVTAEVVLAHLGGGSTSRATSFLLALEPELEARLAHLGVQVKGEDEEENNLEVRETKIKGKSGRFFTVKLPVALDPGAKISVIVETVYTHVLHPYPTQITQSEKQFVVFEGNHYFYSPYPTKTQTMRVKLASRNVESYTKLGNPTRSEDLLDYGPFRDVPAYSQDTFKVHYENNSPFLTITSMTRVIEVSHWGNIAVEENVDLKHTGAVLKGPFSRYDYQRQPDSGISSIRSFKTILPAAAQDVYYRDEIGNVSTSHLLILDDSVEMEIRPRFPLFGGWKTHYIVGYNLPSYEYLYNLGDQYALKMRFVDHVFDEQVIDSLTVKIILPEGAKNIEIDSPYEISRAPDELHYTYLDTFGRPVIVAYKKNLVEQHIQDIVVHYTFNKVLMLQEPLLVVAAFYILFFTVIIYVRLDFSITKDPAAEARMKVACITEQVLTLVNKRIGLYRHFDETVNRYKQSRDISTLNSGKKSLETEHKALTSEIALLQSRLKTEGSDLCDRVSEMQKLDAQVKELVLKSAVEAERLVAGKLKKDTYIENEKLISGKRQELVTKIDHILDAL
B5: Serine/arginine-rich splicing factor 3 (protein, UniProt P84103 1-164)
chain: MHRDSCPLDCKVYVGNLGNNGNKTELERAFGYYGPLRSVWVARNPPGFAFVEFEDPRDAADAVRELDGRTLCGCRVRVELSNGEKRSRNRGPPPSWGRRPRDDYRRRSPPPRRRSPRRRSFSRSRSRSLSRDRRRERSLSRERNHKPSRSFSRSRSRSRSNERK
B6: Signal recognition particle 9-kDa protein (protein, UniProt P49458 1-86)
chain: MPQYQTWEEFSRAAEKLYLADPMKARVVLKYRHSDGNLCVKVTDDLVCLVYKTDQAQDVKKIEKFHSQLMRLMVAKEARNVTMETE
B7: Short-chain dehydrogenase/reductase family 9C member 7 (protein, UniProt Q8NEX9 1-313)
chain: MAALTDLSFMYRWFKNCNLVGNLSEKYVFITGCDSGFGNLLAKQLVDRGMQVLAACFTEEGSQKLQRDTSYRLQTTLLDVTKSESIKAAAQWVRDKVGEQGLWALVNNAGVGLPSGPNEWLTKDDFVKVINVNLVGLIEVTLHMLPMVKRARGRVVNMSSSGGRVAVIGGGYCVSKFGVEAFSDSIRRELYYFGVKVCIIEPGNYRTAILGKENLESRMRKLWERLPQETRDSYGEDYFRIYTDKLKNIMQVAEPRVRDVINSMEHAIVSRSPRIRYNPGLDAKLLYIPLAKLPTPVTDFILSRYLPRPADSV
B8: Serine hydroxymethyltransferase, mitochondrial (enzyme, UniProt P34897 30-504)
chain: NAAQTQTGEANRGWTGQESLSDSDPEMWELLQREKDRQCRGLELIASENFCSRAALEALGSCLNNKYSEGYPGKRYYGGAEVVDEIELLCQRRALEAFDLDPAQWGVNVQPYSGSPANLAVYTALLQPHDRIMGLDLPDGGHLTHGYMSDVKRISATSIFFESMPYKLNPKTGLIDYNQLALTARLFRPRLIIAGTSAYARLIDYARMREVCDEVKAHLLADMAHISGLVAAKVIPSPFKHADIVTTTTHKTLRGARSGLIFYRKGVKAVDPKTGREIPYTFEDRINFAVFPSLQGGPHNHAIAAVAVALKQACTPMFREYSLQVLKNARAMADALLERGYSLVSGGTDNHLVLVDLRPKGLDGARAERVLELVSITANKNTCPGDRSAITPGGLRLGAPALTSRQFREDDFRRVVDFIDEGVNIGLEVKSKTAKLQDFKSFLLKDSETSQRLANLRQRVEQFARAFPMPGFDEH
B9: Fructose-bisphosphate aldolase 1 (enzyme, UniProt P54216 1-366)
chain: MASYSQFLTKAQEDELRSIANAIVTPGKGILAADESTGSMDKRLNSIGLENTEENRRKYRQLLFTAGADLNKYISGVIMFHETFYQKTDDGKPFTALLQEQGIIPGIKVDKGVVPMAGTIGEGTTQGLDDLNARCAQYKKDGAQFAKWRCVHKISSTTPSVTALKEIASNLGSRYASICQQNGLVPIVEPEILPDGEHCLARGQKITETVLSYVYHALNEHHVFLEGTLLKPNMVTSGQSFTGEKPSNADIGLATVTALQRGVPSAVPGVVFLSGGQSEEDATLNLNAINQVSGKKPWALTFSYGRALQASCLAKWAGKDENIAAAQEVLLHRAQVNSLASVGKYTGDASADAAASQSLFVANHSY
B10: ATP-dependent RNA helicase cgh-1 (enzyme, UniProt Q95YF3 1-430)
chain: MSGAEQQQIVPANNGDENWKAGLNLPAKDRRFKTADVTDTKGVEFEDFCLGRDLLMGIFEKGWEKPSPIQEASIGVALTGQDILARAKNGTGKTGAYCIPVIEKIQPALKAIQAMVIVPTRELALQTSQICVELSKHIQLKVMVTTGGTDLRDDIMRLNGTVHLVIATPGRILDLMEKGVAKMEHCKTLVLDEADKLLSQDFQGILDRLINFLPKERQVMLYSATFPNTVTSFMQKHMHKPYEINLMEELTLLGVTQYYAFVQEKQKVHCLNTLFRKLQINQSIIFCNSTQRVELLAKKITEIGYSCYYIHSKMAQNHRNRVFHDFRQGNCRNLVCSDLLTRGIDIQAVNVVINFDFPRNAETYLHRIGRSGRFGHLGVAINLITYEDRHTLRRIEQELRTRIEPIPKTVDPKLYVADQQLVDAADETTA

Results are given in words; binding and its absence hold for the method and conditions named. In cells and extracts the contact can be indirect. These calls come from enrichment with a bait or labelling near it, and not all partners need be listed. For some assays here: Sequences can lack the tags named with a protein.

In the first test the target is T1, HA::AdipoR2 (human). The test can be described thus: affinity purification with mass spectrometry; anti-HA immunoprecipitation (rabbit mAb C29F4 + protein A-agarose, 3 h) from lysates of HEK293 cells stably expressing HA-tagged AdipoR2; 25 mM Tris pH 7.5, 300 mM NaCl, 0.1% NP-40; eluted with 0.2 M glycine pH 2.5; 4 IPs; control: cells without HA-tagged protein.
Turning to B1, the binding result is “binds”.

For the molecule B2, the binding entry was “binds”.

As for B3, the binding result is given as “binds”.

As for B4, the binding result is “binds”.

For the molecule B5, the binding entry is “binds”.

In the case of B6, the binding result is “binds”.

Consider B7, for which the binding entry is given as “binds”.

In the case of B8, the binding entry is on record as “binds”.

For a further test, the target named is HA::PAQR-2 (C. elegans) (UniProt Q9N536). In words: affinity purification with mass spectrometry; anti-HA immunoprecipitation (rabbit mAb C29F4 + protein A-agarose, 1 h, 4 °C) from lysates of whole worms carrying HA::PAQR-2; 25 mM Tris pH 7.5, 300 mM NaCl, 0.1% NP-40, no protease inhibitor; eluted with 0.2 M glycine pH 2.5; 2 IPs; control: worms without HA-tagged protein.
In the case of CEY-3 (from UniProt P91398), the binding result is “binds”.

In the case of RPL-36.A (from UniProt P48166 1-105), the binding result is reported as “binds”.

For the molecule ACDH-8 (from UniProt Q21243), the binding entry is reported as “binds”.

For the molecule PUD-3 (from UniProt Q5TKB2), the binding result was “binds”.

Consider “Peptidyl-prolyl cis-trans isomerase 3 (from UniProt P52011 1-173) (enzyme)”, for which the binding entry is given as “binds”.

Consider GTBP-1 (from UniProt Q21351 1-473), for which the binding result is “binds”.

As for PUD-1.2 (from UniProt G5EET8), the binding entry is recorded as “binds”.

In the case of EARS-1 (from UniProt Q23315) (enzyme), the binding result is on record as “binds”.

For ACS-4 (from UniProt Q20121) (enzyme), the binding result was “binds”.

Consider FASN-1 (from UniProt P91871) (enzyme), for which the binding result is recorded as “binds”.

As for EXC-15 (from UniProt Q22352), the binding result is reported as “binds”.

As for VGLN-1 (from UniProt Q17832), the binding entry is “binds”.

For UNC-52 (from UniProt Q06561 23-3375), the binding entry is “binds”.

On to B9, for which the binding entry was “binds”.

As for B10, the binding entry is given as “binds”.
